Some of the results follow.
compound: CC1Cc2ccccc2N1C(=O)C1CCCN(C1)C(=O)CCl (mixture of isomers) [TRIM25 ligand 11 (diastereomer mixture)]; assay: probe-labelled cysteine peptide fold change vs DMSO (competition) (log2 fold change); higher = less target engagement (more negative = stronger competition); conditions: 50 µM; THP-1; incubation time: 4 h
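Also: competitive chemoproteomic profiling in live THP-1 cells with an iodoacetamide desthiobiotin (IA-DTB) probe, comparing probe-labelled peptide intensities in compound-treated cells against DMSO-treated controls.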

Protein sequences, listed by entry. Tags and fused reporters are not part of them. Lines headed by an entry give the natural chain unless they say otherwise; changes in a name come on top.
UniProt P84095: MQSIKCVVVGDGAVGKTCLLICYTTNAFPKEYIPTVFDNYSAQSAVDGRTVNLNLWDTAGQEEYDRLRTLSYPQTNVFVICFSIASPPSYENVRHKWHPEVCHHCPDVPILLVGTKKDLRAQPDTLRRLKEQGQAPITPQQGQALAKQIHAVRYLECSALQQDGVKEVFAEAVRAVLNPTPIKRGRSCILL
UniProt Q9H871: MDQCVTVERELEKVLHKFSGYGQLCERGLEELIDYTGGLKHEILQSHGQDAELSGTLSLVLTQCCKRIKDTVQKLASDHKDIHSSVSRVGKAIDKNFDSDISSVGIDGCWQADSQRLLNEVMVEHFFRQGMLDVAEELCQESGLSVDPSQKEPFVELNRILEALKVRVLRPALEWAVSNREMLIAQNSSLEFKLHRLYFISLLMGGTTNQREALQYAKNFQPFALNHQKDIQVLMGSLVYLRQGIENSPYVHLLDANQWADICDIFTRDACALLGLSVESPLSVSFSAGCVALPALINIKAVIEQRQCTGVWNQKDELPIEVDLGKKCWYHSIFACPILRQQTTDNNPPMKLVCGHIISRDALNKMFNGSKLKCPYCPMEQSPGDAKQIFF
UniProt Q5UIP0: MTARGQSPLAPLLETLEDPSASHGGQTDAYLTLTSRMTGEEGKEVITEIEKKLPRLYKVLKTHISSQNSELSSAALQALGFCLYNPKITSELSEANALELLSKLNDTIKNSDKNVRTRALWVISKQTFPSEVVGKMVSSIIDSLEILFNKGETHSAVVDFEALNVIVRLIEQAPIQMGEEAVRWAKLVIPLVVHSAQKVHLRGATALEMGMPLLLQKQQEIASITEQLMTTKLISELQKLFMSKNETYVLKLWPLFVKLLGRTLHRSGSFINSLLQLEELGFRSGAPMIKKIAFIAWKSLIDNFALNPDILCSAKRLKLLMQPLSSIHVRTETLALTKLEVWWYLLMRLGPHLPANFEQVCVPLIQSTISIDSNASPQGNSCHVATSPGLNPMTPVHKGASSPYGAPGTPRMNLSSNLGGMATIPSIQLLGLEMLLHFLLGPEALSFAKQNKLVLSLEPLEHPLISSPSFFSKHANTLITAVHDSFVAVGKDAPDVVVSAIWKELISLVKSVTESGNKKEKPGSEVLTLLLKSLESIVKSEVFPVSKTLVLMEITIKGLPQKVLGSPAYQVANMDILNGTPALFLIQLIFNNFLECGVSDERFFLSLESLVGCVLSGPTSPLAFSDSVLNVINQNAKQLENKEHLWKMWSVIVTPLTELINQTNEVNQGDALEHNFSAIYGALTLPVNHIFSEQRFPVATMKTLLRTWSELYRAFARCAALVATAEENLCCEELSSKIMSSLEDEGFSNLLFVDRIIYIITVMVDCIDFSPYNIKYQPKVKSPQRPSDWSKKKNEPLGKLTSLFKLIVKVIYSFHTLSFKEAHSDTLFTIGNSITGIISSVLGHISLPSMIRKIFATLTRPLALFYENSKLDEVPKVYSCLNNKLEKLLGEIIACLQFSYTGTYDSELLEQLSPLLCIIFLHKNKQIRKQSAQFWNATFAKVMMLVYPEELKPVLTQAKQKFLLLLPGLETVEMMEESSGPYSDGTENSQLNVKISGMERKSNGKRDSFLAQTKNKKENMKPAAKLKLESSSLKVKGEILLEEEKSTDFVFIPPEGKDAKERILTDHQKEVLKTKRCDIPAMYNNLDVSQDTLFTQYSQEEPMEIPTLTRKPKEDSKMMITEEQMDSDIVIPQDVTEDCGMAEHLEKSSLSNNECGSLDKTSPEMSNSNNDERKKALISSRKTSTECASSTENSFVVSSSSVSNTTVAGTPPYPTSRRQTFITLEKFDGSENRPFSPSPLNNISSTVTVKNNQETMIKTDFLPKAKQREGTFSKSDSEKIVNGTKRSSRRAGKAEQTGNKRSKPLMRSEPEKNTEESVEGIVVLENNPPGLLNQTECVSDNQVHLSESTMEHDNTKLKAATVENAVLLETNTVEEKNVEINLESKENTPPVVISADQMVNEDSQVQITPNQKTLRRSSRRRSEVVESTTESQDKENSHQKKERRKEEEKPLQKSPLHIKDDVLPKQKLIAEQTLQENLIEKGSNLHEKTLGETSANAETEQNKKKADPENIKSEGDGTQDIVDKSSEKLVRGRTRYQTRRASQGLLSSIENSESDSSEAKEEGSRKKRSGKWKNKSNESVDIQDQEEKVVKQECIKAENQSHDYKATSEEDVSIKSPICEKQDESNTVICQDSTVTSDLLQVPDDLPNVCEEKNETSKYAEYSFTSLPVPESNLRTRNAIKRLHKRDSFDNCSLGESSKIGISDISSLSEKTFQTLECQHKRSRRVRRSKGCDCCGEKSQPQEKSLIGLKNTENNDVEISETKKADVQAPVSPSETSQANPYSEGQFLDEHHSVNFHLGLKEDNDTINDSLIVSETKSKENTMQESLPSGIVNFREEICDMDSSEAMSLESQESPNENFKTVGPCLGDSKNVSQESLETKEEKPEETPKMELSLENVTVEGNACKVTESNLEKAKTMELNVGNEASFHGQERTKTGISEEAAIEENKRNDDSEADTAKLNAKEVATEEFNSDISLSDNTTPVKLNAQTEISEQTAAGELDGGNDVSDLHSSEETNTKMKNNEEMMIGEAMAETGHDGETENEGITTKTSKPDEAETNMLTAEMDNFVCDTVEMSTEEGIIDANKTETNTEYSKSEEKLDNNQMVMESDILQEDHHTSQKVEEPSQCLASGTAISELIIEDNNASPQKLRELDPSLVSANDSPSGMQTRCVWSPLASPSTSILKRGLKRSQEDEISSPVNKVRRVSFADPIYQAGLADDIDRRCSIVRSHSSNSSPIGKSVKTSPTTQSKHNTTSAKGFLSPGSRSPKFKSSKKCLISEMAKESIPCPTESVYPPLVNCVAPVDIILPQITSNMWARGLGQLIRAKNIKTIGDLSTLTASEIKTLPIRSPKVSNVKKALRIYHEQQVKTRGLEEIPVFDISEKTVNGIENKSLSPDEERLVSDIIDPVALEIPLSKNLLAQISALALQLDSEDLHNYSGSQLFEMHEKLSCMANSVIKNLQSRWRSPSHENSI
UniProt Q5TBB1: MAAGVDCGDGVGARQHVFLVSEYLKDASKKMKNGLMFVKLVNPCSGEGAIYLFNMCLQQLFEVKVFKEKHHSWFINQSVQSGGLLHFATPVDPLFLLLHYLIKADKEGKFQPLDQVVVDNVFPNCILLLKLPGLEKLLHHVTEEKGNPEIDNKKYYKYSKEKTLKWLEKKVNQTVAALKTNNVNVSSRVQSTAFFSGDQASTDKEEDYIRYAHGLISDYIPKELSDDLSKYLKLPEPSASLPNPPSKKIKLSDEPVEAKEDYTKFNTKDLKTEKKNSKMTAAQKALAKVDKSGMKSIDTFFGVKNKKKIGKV
UniProt Q6NW40: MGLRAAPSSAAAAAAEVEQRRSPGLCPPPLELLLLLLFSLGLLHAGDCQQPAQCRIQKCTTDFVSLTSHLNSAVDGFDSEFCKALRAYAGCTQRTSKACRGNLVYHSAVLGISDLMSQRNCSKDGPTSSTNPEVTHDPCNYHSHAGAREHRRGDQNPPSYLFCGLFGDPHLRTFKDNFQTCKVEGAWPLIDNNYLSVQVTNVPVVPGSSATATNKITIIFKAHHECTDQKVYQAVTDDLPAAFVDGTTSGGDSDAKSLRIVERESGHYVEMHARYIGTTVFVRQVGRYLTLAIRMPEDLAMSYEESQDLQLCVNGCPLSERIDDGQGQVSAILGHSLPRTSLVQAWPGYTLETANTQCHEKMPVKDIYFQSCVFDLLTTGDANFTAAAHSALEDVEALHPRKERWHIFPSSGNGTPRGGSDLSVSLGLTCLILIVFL
UniProt P35250, whole entry, looked up: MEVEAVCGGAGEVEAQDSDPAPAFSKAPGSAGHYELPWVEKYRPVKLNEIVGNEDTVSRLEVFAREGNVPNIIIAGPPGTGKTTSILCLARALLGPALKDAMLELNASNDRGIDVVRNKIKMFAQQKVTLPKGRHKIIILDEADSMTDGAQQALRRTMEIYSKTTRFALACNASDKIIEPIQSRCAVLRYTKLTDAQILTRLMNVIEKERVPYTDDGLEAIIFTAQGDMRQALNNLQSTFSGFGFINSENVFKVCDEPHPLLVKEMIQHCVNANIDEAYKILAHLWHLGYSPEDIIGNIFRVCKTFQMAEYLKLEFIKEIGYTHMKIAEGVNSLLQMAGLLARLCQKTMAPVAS
UniProt Q9Y508: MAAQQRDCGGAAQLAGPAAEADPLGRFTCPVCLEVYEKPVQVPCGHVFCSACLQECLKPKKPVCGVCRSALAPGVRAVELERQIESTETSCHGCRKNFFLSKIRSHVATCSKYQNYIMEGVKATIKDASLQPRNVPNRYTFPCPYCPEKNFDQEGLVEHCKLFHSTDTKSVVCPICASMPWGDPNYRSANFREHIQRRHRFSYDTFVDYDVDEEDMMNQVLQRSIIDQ
UniProt O14730: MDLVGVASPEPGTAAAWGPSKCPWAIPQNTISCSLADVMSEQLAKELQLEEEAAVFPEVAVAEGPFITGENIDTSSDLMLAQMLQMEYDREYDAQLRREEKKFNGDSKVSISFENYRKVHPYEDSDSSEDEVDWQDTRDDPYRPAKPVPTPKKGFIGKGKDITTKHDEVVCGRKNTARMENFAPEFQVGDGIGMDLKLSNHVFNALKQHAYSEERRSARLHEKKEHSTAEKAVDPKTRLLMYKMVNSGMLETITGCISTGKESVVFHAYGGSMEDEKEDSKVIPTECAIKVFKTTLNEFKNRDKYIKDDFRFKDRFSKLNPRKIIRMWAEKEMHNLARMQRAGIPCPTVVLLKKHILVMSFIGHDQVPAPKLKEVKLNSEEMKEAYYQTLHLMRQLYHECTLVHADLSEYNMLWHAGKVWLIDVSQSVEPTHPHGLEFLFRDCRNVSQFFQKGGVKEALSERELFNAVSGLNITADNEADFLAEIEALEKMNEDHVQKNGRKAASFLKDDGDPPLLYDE
UniProt P51606: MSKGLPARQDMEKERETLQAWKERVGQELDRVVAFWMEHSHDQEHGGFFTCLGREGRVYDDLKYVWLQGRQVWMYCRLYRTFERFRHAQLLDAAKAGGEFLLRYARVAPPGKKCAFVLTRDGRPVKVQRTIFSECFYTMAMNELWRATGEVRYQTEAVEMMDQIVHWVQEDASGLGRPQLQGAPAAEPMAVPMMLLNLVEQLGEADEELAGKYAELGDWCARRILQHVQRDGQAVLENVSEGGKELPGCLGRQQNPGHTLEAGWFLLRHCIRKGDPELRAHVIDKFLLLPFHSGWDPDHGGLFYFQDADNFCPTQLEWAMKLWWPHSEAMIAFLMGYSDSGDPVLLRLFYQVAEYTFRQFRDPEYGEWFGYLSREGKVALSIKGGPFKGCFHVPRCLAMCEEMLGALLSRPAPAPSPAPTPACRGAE
UniProt Q969G6: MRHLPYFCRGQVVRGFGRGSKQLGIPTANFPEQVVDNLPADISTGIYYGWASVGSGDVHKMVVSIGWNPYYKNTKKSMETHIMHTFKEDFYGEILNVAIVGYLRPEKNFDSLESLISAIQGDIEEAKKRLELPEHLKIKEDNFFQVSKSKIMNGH
UniProt O75792: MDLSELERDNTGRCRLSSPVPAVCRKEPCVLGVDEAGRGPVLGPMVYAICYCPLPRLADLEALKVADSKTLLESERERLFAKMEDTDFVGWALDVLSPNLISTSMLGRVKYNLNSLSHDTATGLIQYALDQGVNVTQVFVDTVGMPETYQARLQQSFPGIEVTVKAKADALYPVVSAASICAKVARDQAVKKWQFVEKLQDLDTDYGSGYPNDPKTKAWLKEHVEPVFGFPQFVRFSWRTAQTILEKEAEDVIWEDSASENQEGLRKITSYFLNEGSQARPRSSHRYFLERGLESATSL
UniProt Q8WZ73: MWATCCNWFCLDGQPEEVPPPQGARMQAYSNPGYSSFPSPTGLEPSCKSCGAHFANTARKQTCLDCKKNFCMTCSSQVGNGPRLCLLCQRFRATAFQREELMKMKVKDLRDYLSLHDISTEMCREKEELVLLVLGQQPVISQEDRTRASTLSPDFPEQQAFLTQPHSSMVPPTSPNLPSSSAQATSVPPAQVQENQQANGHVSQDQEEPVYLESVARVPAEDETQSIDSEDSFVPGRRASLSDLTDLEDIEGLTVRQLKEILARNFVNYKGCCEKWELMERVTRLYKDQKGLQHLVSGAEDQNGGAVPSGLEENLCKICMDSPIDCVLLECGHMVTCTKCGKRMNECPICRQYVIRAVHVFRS
UniProt Q8IZV5: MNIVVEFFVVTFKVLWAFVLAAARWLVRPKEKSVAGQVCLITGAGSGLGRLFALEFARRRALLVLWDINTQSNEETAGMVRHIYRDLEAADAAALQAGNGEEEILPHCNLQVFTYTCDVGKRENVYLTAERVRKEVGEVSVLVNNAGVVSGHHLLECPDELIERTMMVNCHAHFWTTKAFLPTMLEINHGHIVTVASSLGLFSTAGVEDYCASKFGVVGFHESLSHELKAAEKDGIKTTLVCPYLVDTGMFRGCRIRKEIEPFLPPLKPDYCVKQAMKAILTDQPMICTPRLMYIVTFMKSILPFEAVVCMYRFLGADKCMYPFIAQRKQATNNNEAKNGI

Target	probe-labelled cysteine peptide fold change
RHOG_P84095_18_TCLLICYTTNAFPK (UniProt P84095)	0.138
RMND5A_Q9H871_328+336_CWYHSIFACPILR (UniProt Q9H871)	-0.00521
RICTOR_Q6R327_778_TISSEALDILDEACEDK (UniProt Q6R327)	0.192
RIF1_Q5UIP0_2450_LSCMANSVIK (UniProt Q5UIP0)	-0.177
RMND5A_Q9H871_354_LVCGHIISR (UniProt Q9H871)	-0.0791
RNASEH2B_Q5TBB1_7_AAGVDCGDGVGAR (UniProt Q5TBB1)	0.265
RIF1_Q5UIP0_731_CAALVATAEENLCCEELSSK (UniProt Q5UIP0)	0.222
RGMB_Q6NW40_226_ITIIFKAHHECTDQK (UniProt Q6NW40)	-0.619
RFC2_P35250_171_FALACNASDK (UniProt P35250)	0.151
RGP1_Q92546_90_GQCILSTPPK (UniProt Q92546)	-0.162
RMI1_Q9H9A7_366_FSHNPNTTNNFSLTCK (UniProt Q9H9A7)	-0.288
RNF114_Q9Y508_8_DCGGAAQLAGPAAEADPLGR (UniProt Q9Y508)	-0.152
RIOK3_O14730_346_AGIPCPTVVLLK (UniProt O14730)	0.179
REL_Q04864_143_QLNDIEDCDLNVVR (UniProt Q04864)	0.0105
RENBP_P51606_114_CAFVLTR (UniProt P51606)	0.219
RIF1_Q5UIP0_2274_CLISEMAK (UniProt Q5UIP0)	-0.388
RFT1_Q96AA3_70_ACLSGGTQR (UniProt Q96AA3)	-0.15
RIN1_Q13671_623_LPATHCFQHLLR (UniProt Q13671)	-0.0262

Some of the entries so far, field by field:
RMND5A_Q9H871_354_LVCGHIISR (UniProt Q9H871)
  probe-labelled cysteine peptide fold change: -0.0791
RNASEH2B_Q5TBB1_7_AAGVDCGDGVGAR (UniProt Q5TBB1)
  probe-labelled cysteine peptide fold change: 0.265

More records:

Target	probe-labelled cysteine peptide fold change
RFK_Q969G6_8_HLPYFCR (UniProt Q969G6)	0.03
RNASEH2A_O75792_24_LSSPVPAVCR (UniProt O75792)	-0.0838
RIF1_Q5UIP0_1155_SSLSNNECGSLDK (UniProt Q5UIP0)	-0.266
RENBP_P51606_135_TIFSECFYTMAMNELWR (UniProt P51606)	0.52
RIOK2_Q9BVS4_449_VQGGVPAGSDEYEDECPHLIALSSLNR (UniProt Q9BVS4)	-0.353
RMDN3_Q96TC7_128_CHMEENQR (UniProt Q96TC7)	-0.0604
RNASEH2A_O75792_29_EPCVLGVDEAGR (UniProt O75792)	-0.0543
RFC2_P35250_88_TTSILCLAR (UniProt P35250)	0.034
RIPOR1_Q6ZS17_1191_QSLQQCGEEGQSAHR (UniProt Q6ZS17)	-0.0527
RMDN1_Q96DB5_170_WYAICLSDVGDYEGIK (UniProt Q96DB5)	0.237
RFFL_Q8WZ73_123_DYLSLHDISTEMCR (UniProt Q8WZ73)	0.211
RHBDF2_Q6PJF5_500_DSGCCVQNDHSGCIQTQR (UniProt Q6PJF5)	-0.0623
RFC4_P35249_48_CVDEVAFQEEVVAVLK (UniProt P35249)	-0.0734
RHOG_P84095_105_WHPEVCHHCPDVPILLVGTKK (UniProt P84095)	-0.278
RET_P07949_987_LMLQCWK (UniProt P07949)	-0.00958
RDH10_Q8IZV5_170_TMMVNCHAHFWTTK (UniProt Q8IZV5)	0.0319
RECQL4_O94761_1088_TFQAFHSVAFPSCGPCLEQQDEER (UniProt O94761)	-0.324
RELCH_Q9P260_548_REELIPLILCTACLHPEPK (UniProt Q9P260)	0.246

— the supplement of paper PMC12067093, “Discovery and optimisation of a covalent ligand for TRIM25 and its application to targeted protein ubiquitination” (Chemical Science, 2025)
